Measured values reported in PMC9622860, “Structural and molecular determinants of Candida glabrata metacaspase maturation and activation by calcium” (Communications Biology, 2022).
Results are given in words; binding and its absence hold for the method and conditions named.

Molecular target: Candida glabrata metacaspase CgMCA-I (residues 1-392), wild type (Candida glabrata) (UniProt Q6FPX9)
Experiment: SEC-SAXS; SAXS in SEC-coupled mode, Superdex S200 Increase 5/150, 10 mM HEPES pH 7.6, 300 mM NaCl, 1% glycerol, 10 mM CaCl2; sample at 9.6 mg mL^-1; both purified

B1: Candida glabrata metacaspase CgMCA-I (residues 1-392), wild type (enzyme, UniProt Q6FPX9 1-392)
chain: MYPGSGNYSYNNRPSMPPPGFNGDGQGYRQEYGNQYGGGYQQQQYQDQYQGENRGQYQGQYQDQPEYGRPPSGMVRPPSSIQQGNGQQFQYSQMTGRRKALLIGINYIGSKNALRGCINDAHNIFNYLTTYCGYRPEDIVMLTDDQREMVKIPLKENIIRAMQWLVKDAQPNDALFFHYSGHGGQTKDLDGDEEDGMDDVIYPVDFESVGPLIDDTMHDIMVKSLPQGARLTALFDSCHSGTVLDLPYTYSTKGVIKEPNMWKDVGSDGIQAAMAYATGNRSALFSSIGNMVSSVTKKQNVDRERVRQIKFSPADVIMLSGSKDNQTSADTFADGQNIGAMSHAFISVMTRQPQQSYLSLLQNLRNELAGKYSQKPQLSASHPIDVNLQFIM
- binding: no binding (tested: 9.6 mg mL^-1)
